Results deposited as PubChem BioAssay AID1224830 (NIAID, 2016)
Screen: 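Regulators of TLR4 signalling towards TNF-alpha in macrophage-like cells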 (primary screen). Cell system: human THP-1 monocytic leukaemia cells, TNF dual-luciferase reporter clone, PMA-differentiated to macrophage-like cells. Reagent: siRNA pool against human genes, 50 nM. Timing: LPS for 4 h, given about 3 days after siRNA transfection. Treatment: bacterial LPS (TLR4 ligand), 10 ng/ml. Read-out: 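TNF firefly reporter luminescence divided by renilla, normalised to the plate median, then turned into a robust z-score for each replicate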. Scale: TNF reporter robust z-score: higher = stronger TNF reporter response to LPS. Active means: 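Each well counts as active if its z-score is over 2.8 or under -1.5; controls are left without a call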.
Here is an unselected part of about 18,000 reagents tested. Over the whole deposit, about 2,900 (16%) are marked active. 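Calls are made per well; low scores hint the gene aids the LPS response, high scores that it dampens it.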 The numbers tell different reagents against one gene apart. Repeated entries: four replicate wells of each siRNA pool. Reagent sequences are not shown.

Against TMEM232 the deposit lists TNF reporter robust z-score -0.7; inactive.
With knock-down of TMEM232, the screen gave TNF reporter robust z-score -1.18; inactive.
TMEM232 gave TNF reporter robust z-score -0.08; inactive.
Silencing of TMEM232 came out at: TNF reporter robust z-score 0.35; inactive.
After knock-down of TAF1A the results were TNF reporter robust z-score 2.19; inactive.
After knock-down of TAF1A the results were TNF reporter robust z-score 3.01; active.
Silencing of TAF1A resulted in: TNF reporter robust z-score 1.67; inactive.
Silencing of TAF1A came out at: TNF reporter robust z-score 2.09; inactive.
CCDC7 #1 gave TNF reporter robust z-score -0.41; inactive.
Silencing of CCDC7 #1 resulted in: TNF reporter robust z-score -0.23; inactive.
After knock-down of CCDC7 #1 the results were TNF reporter robust z-score -0.61; inactive.
With knock-down of CCDC7 #1, the record shows TNF reporter robust z-score 0.18; inactive.
With knock-down of CCDC7 #2, the screen gave TNF reporter robust z-score 1.33; inactive.
Depletion of CCDC7 #2 resulted in: TNF reporter robust z-score 1.89; inactive.
After knock-down of CCDC7 #2, the screen gave TNF reporter robust z-score 0; inactive.
CCDC7 #2 scored TNF reporter robust z-score 0.78; inactive.
GPR85 gave TNF reporter robust z-score -0.67; inactive.
GPR85 gave TNF reporter robust z-score -0.07; inactive.
With knock-down of GPR85, the record shows TNF reporter robust z-score -0.4; inactive.
Silencing of GPR85 gave: TNF reporter robust z-score -0.66; inactive.

4 entries already listed, arranged by “TNF reporter robust z-score”, high to low.
TAF1A → TNF reporter robust z-score: 2.09; activity call: inactive
CCDC7 #1 → TNF reporter robust z-score: -0.23; activity call: inactive
CCDC7 #1 → TNF reporter robust z-score: -0.41; activity call: inactive
CCDC7 #1 → TNF reporter robust z-score: -0.61; activity call: inactive

Continued.
After knock-down of PAK4 the results were TNF reporter robust z-score -0.54; inactive.
After knock-down of PAK4, the record shows TNF reporter robust z-score 0.84; inactive.
Against PAK4, the entry reads TNF reporter robust z-score -0.51; inactive.
Knock-down of PAK4 resulted in: TNF reporter robust z-score 0.69; inactive.
With knock-down of IGFBP2, the screen gave TNF reporter robust z-score -1.48; inactive.
Against IGFBP2, the values are TNF reporter robust z-score 0.12; inactive.
After knock-down of IGFBP2, the screen gave TNF reporter robust z-score -0.16; inactive.
With knock-down of IGFBP2 the results were TNF reporter robust z-score 0.02; inactive.
With knock-down of TXLNB the results were TNF reporter robust z-score -0.39; inactive.
TXLNB gave TNF reporter robust z-score -0.46; inactive.
Knock-down of TXLNB resulted in: TNF reporter robust z-score -0.71; inactive.
After knock-down of TXLNB the results were TNF reporter robust z-score -0.74; inactive.
